Data as given in PubChem BioAssay AID1259254 (NCATS, 2017)

Assay: 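Gene knock-downs that lead to re-replication, shown by excess G2 DNA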 (primary screen)
Cell system: human HCT116 colorectal cancer cells
Reagents: single siRNA against human genes
Time to read-out: 3 days
Read-out: 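Imaged Hoechst DNA stain sorts each cell into a cycle phase by DNA amount; per plate, G2 fraction set to 0% for non-targeting and 100% for GMNN siRNA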
Scale: G2 robust z-score: higher = more G2 cells, more excess DNA replication
Rule for the call: 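Active siRNAs have a G2 robust z of 5 or more median absolute deviations over the median, which in these data means about 38% or higher of GMNN control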
In all, the deposit lists about 59,000 reagents; below is a random part of them. About 1,550 of them (2.6%) count as active. 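G2 share is only a proxy for re-replication; each gene was hit by three separate siRNAs, and active genes were retested.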 Reagents against one gene are numbered here. Further read-outs or replicates are left out here. Reagent sequences are not shown. Not stated in the record: the amount of reagent.

no.	Gene	reagent	G2 robust z-score	Outcome
1	OLFML2A (olfactomedin like 2A)	1	0.0516	inactive
2	OLFML2A (olfactomedin like 2A)	2	4.68	inactive
3	OLFML2A (olfactomedin like 2A)	3	-0.743	inactive
4	LINC02609 (long independently transcribed non-coding RNA 2609)	1	-0.384	inactive
5	LINC02609 (long independently transcribed non-coding RNA 2609)	2	1.21	inactive
6	LINC02609 (long independently transcribed non-coding RNA 2609)	3	-0.565	inactive
7	PHLDB1 (pleckstrin homology like domain family B member 1)	1	4.22	inactive
8	PHLDB1 (pleckstrin homology like domain family B member 1)	2	1.28	inactive
9	PHLDB1 (pleckstrin homology like domain family B member 1)	3	1.41	inactive
10	COX6B1 (cytochrome c oxidase subunit 6B1)	1	-0.455	inactive
11	COX6B1 (cytochrome c oxidase subunit 6B1)	2	-0.0934	inactive
12	COX6B1 (cytochrome c oxidase subunit 6B1)	3	0.0623	inactive
13	LONRF3 (LON peptidase N-terminal domain and ring finger 3)	1	0.973	inactive
14	LONRF3 (LON peptidase N-terminal domain and ring finger 3)	2	-0.258	inactive
15	LONRF3 (LON peptidase N-terminal domain and ring finger 3)	3	-0.245	inactive
16	PCBP1-AS1 (PCBP1 antisense RNA 1)	1	1.1	inactive
17	PCBP1-AS1 (PCBP1 antisense RNA 1)	2	3.11	inactive
18	PCBP1-AS1 (PCBP1 antisense RNA 1)	3	-0.783	inactive
19	GRK6 (G protein-coupled receptor kinase 6)	1	-1.21	inactive
20	GRK6 (G protein-coupled receptor kinase 6)	2	0.103	inactive
21	GRK6 (G protein-coupled receptor kinase 6)	3	-0.461	inactive
22	SLC40A1	1	-0.366	inactive
23	SLC40A1	2	-0.741	inactive
24	SLC40A1	3	13.3	active
25	ISG15 (ISG15 ubiquitin like modifier)	1	1.69	inactive
26	ISG15 (ISG15 ubiquitin like modifier)	2	3.55	inactive
27	ISG15 (ISG15 ubiquitin like modifier)	3	5.27	active
28	ASB3 (ankyrin repeat and SOCS box containing 3)	1	1.61	inactive
29	ASB3 (ankyrin repeat and SOCS box containing 3)	2	-0.183	inactive
30	ASB3 (ankyrin repeat and SOCS box containing 3)	3	4.21	inactive

Individual results from above.
Under “G2 robust z-score”, ASB3 (ankyrin repeat and SOCS box containing 3) #2 reads -0.183
For “G2 robust z-score”, SLC40A1 #1 is entered as -0.366
Entry of OLFML2A (olfactomedin like 2A) #3 in “Outcome”: inactive
